The source of these data is US20210253598A1, “ARYL ANNULATED MACROCYCLIC INDOLE DERIVATIVES” (priority 2017, published 2021).

This assay deals with MV-4-11. As to the kind of experiment: Anti-proliferative effect in MV-4-11 cells, CellTiter-Glo (Assay 7). Particulars: read-out: Antiproli MV-4-11, MV-4-11, 72 hours incubation, several values per example.

Structures are written as SMILES. The source holds more than one record for some entries. They are shown here; other results are not. There may be further records. The records of an entry differ, and nothing given here explains why; dose, time, organism, isomer or construct need not be as stated for each record.

`Cc1c2c(nn1C)COCc1ncccc1Cn1c(C(=O)O)c(CCCOc3cccc4ccccc34)c3ccc(Cl)c-2c31`: the IC50 is 3.34 µM and 6.69 µM.
